# Results as given in the supplement of paper PMC8728848.
# Some of the results follow.
# B1: Actd5 (Actinidia), P84527 (protein)
# chain: ISSCNGPCRDLNDCDGQLICIKGKCNDDPQVGTHICRGTTHSHQPGGCKPSGTLTCRGKSYPTYDCSPPVTSSTPAKLTNNDFSEGGDDGGPSECDESYHNNNERIVALSTGWYNGGSRCGKMIRITASNGKSVSAKVVDECDSRHGCDKEHAGQPPCRNNIVDGSNAVWSALGLDKNVGVVDITWSMA
# Key:
# Test in all cases: glycan array binding signal (z-score within array); higher = stronger binding
# Conditions in all cases: glycan notation: IUPAC condensed, linker removed
# [1] = target: Neu5Ac(a2-6)Gal(b1-4)GlcNAc(b1-2)Man(a1-3)[Man(a1-6)]Man(b1-4)GlcNAc(b1-4)GlcNAc
# Procedure, shortened: (§1)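 Glycan array data came from 3228 arrays in the Consortium for Functional Glycomics database, and only arrays with an available protein sequence were kept. Glycan names were put into IUPAC-condensed notation, and columns mapping to the same glycan were averaged. The binding signal is a within-array Z-score, averaged across arrays of one protein sequence run at different concentrations or buffers and across linkers. A negative Z-score can be read as non-binding.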
# [2] = target: Neu5Ac(a2-6)Gal(b1-4)GlcNAc(b1-2)Man(a1-3)[Neu5Ac(a2-3)Gal(b1-4)GlcNAc(b1-2)Man(a1-6)]Man(b1-4)GlcNAc(b1-4)GlcNAc
# Procedure, shortened: as §1
# [3] = target: Neu5Ac(a2-6)Gal(b1-4)GlcNAc(b1-2)Man(a1-3)[Neu5Ac(a2-6)Gal(b1-4)GlcNAc(b1-2)Man(a1-6)]Man(b1-4)GlcNAc(b1-4)GlcNAc
# Procedure, shortened: as §1
# [4] = target: Neu5Ac(a2-6)Gal(b1-4)GlcNAc(b1-2)Man(a1-3)[Neu5Ac(a2-6)Gal(b1-4)GlcNAc(b1-2)Man(a1-6)]Man(b1-4)GlcNAc(b1-4)[Fuc(a1-6)]GlcNAc
# Procedure, shortened: as §1
# [5] = target: Neu5Ac(a2-6)Gal(b1-4)GlcNAc(b1-2)Man(a1-6)Man(b1-4)GlcNAc(b1-4)GlcNAc
# Procedure, shortened: as §1
# [6] = target: Neu5Ac(a2-6)Gal(b1-4)GlcNAc(b1-2)Man(a1-6)[Gal(b1-4)GlcNAc(b1-2)Man(a1-3)]Man(b1-4)GlcNAc(b1-4)GlcNAc
# Procedure, shortened: as §1
# [7] = target: Neu5Ac(a2-6)Gal(b1-4)GlcNAc(b1-2)Man(a1-6)[GlcNAc(b1-2)Man(a1-3)]Man(b1-4)GlcNAc(b1-4)GlcNAc
# Procedure, shortened: as §1
# [8] = target: Neu5Ac(a2-6)Gal(b1-4)GlcNAc(b1-2)Man(a1-6)[Man(a1-3)]Man(b1-4)GlcNAc(b1-4)GlcNAc
# Procedure, shortened: as §1
# [9] = target: Neu5Ac(a2-6)Gal(b1-4)GlcNAc(b1-2)[Neu5Ac(a2-6)Gal(b1-4)GlcNAc(b1-4)]Man(a1-3)[GlcNAc(b1-4)][Neu5Ac(a2-6)Gal(b1-4)GlcNAc(b1-2)[Neu5Ac(a2-6)Gal(b1-4)GlcNAc(b1-6)]Man(a1-6)]Man(b1-4)GlcNAc(b1-4)GlcNAc
# Procedure, shortened: as §1
# [10] = target: Neu5Ac(a2-6)Gal(b1-4)GlcNAc(b1-2)[Neu5Ac(a2-6)Gal(b1-4)GlcNAc(b1-4)]Man(a1-3)[GlcNAc(b1-4)][Neu5Ac(a2-6)Gal(b1-4)GlcNAc(b1-4)Man(a1-6)]Man(b1-4)GlcNAc(b1-4)GlcNAc
# Procedure, shortened: as §1
# [11] = target: Neu5Ac(a2-6)Gal(b1-4)GlcNAc(b1-2)[Neu5Ac(a2-6)Gal(b1-4)GlcNAc(b1-6)]Man(a1-6)[Neu5Ac(a2-6)Gal(b1-4)GlcNAc(b1-2)Man(a1-3)][GlcNAc(b1-4)]Man(b1-4)GlcNAc(b1-4)GlcNAc
# Procedure, shortened: as §1
# [12] = target: Neu5Ac(a2-6)Gal(b1-4)GlcNAc(b1-3)Gal(b1-3)GlcNAc
# Procedure, shortened: as §1
# [13] = target: Neu5Ac(a2-6)Gal(b1-4)GlcNAc(b1-3)Gal(b1-4)GlcNAc
# Procedure, shortened: as §1
# [14] = target: Neu5Ac(a2-6)Gal(b1-4)GlcNAc(b1-3)Gal(b1-4)GlcNAc(b1-2)Man(a1-3)[Neu5Ac(a2-6)Gal(b1-4)GlcNAc(b1-3)Gal(b1-4)GlcNAc(b1-2)Man(a1-6)]GalNAc
# Procedure, shortened: as §1
# [15] = target: Neu5Ac(a2-6)Gal(b1-4)GlcNAc(b1-3)Gal(b1-4)GlcNAc(b1-3)Gal(b1-4)GlcNAc
# Procedure, shortened: as §1
# [16] = target: Neu5Ac(a2-6)Gal(b1-4)GlcNAc(b1-3)Gal(b1-4)GlcNAc(b1-3)Gal(b1-4)GlcNAc(b1-2)Man(a1-3)[Neu5Ac(a2-6)Gal(b1-4)GlcNAc(b1-3)Gal(b1-4)GlcNAc(b1-3)Gal(b1-4)GlcNAc(b1-2)Man(a1-6)]GalNAc
# Procedure, shortened: as §1
# [17] = target: Neu5Ac(a2-6)Gal(b1-4)GlcNAc(b1-3)Gal(b1-4)GlcNAc(b1-3)GalNAc
# Procedure, shortened: as §1
# [18] = target: Neu5Ac(a2-6)Gal(b1-4)GlcNAc(b1-3)Gal(b1-4)GlcNAc(b1-3)[Neu5Ac(a2-6)Gal(b1-4)GlcNAc(b1-3)Gal(b1-4)GlcNAc(b1-6)]GalNAc
# Procedure, shortened: as §1
# [19] = target: Neu5Ac(a2-6)Gal(b1-4)GlcNAc(b1-3)Gal(b1-4)GlcNAc(b1-6)[Gal(b1-3)]GalNAc
# Procedure, shortened: as §1
# [20] = target: Neu5Ac(a2-6)Gal(b1-4)GlcNAc(b1-3)Gal(b1-4)[Fuc(a1-3)]GlcNAc(b1-3)Gal(b1-4)[Fuc(a1-3)]GlcNAc
# Procedure, shortened: as §1
# [21] = target: Neu5Ac(a2-6)Gal(b1-4)GlcNAc(b1-3)GalNAc
# Procedure, shortened: as §1
# [22] = target: Neu5Ac(a2-6)Gal(b1-4)GlcNAc(b1-3)[Neu5Ac(a2-6)Gal(b1-4)GlcNAc(b1-6)]GalNAc
# Procedure, shortened: as §1
# [23] = target: Neu5Ac(a2-6)Gal(b1-4)GlcNAc(b1-6)GalNAc
# Procedure, shortened: as §1
# [24] = target: Neu5Ac(a2-6)Gal(b1-4)GlcNAc(b1-6)[Gal(b1-3)GlcNAc(b1-3)]Gal(b1-4)Glc
# Procedure, shortened: as §1
# [25] = target: Neu5Ac(a2-6)Gal(b1-4)GlcNAc(b1-6)[Gal(b1-3)]GalNAc
# Procedure, shortened: as §1
# [26] = target: Neu5Ac(a2-6)Gal(b1-4)GlcNAc6S
# Procedure, shortened: as §1
# Neu5Ac(a2-6)GalNAc = target: Neu5Ac(a2-6)GalNAc
# Procedure, shortened: as §1
# [27] = target: Neu5Ac(a2-6)GalNAc(b1-4)GlcNAc
# Procedure, shortened: as §1
# [28] = target: Neu5Ac(a2-6)GalNAc(b1-4)GlcNAc6S
# Procedure, shortened: as §1
# [29] = target: Neu5Ac(a2-6)GlcNAc(b1-4)GlcNAc
# Procedure, shortened: as §1
# [30] = target: Neu5Ac(a2-6)GlcNAc(b1-4)GlcNAc(b1-4)GlcNAc
# Procedure, shortened: as §1
binder,measurement,setting,value
B1,glycan array binding signal (z-score),[1],-0.388
same,glycan array binding signal (z-score),[2],0.577
same,glycan array binding signal (z-score),[3],0.068
same,glycan array binding signal (z-score),[4],0.542
same,glycan array binding signal (z-score),[5],-0.411
same,glycan array binding signal (z-score),[6],-1.05
same,glycan array binding signal (z-score),[7],-0.496
same,glycan array binding signal (z-score),[8],-0.064
same,glycan array binding signal (z-score),[9],-0.29
same,glycan array binding signal (z-score),[10],-0.925
same,glycan array binding signal (z-score),[11],-0.224
same,glycan array binding signal (z-score),[12],0.01
same,glycan array binding signal (z-score),[13],-0.814
same,glycan array binding signal (z-score),[14],0.883
same,glycan array binding signal (z-score),[15],-0.472
same,glycan array binding signal (z-score),[16],3.79
same,glycan array binding signal (z-score),[17],0.091
same,glycan array binding signal (z-score),[18],1.78
same,glycan array binding signal (z-score),[19],-0.12
same,glycan array binding signal (z-score),[20],0.196
same,glycan array binding signal (z-score),[21],-0.953
same,glycan array binding signal (z-score),[22],-0.867
same,glycan array binding signal (z-score),[23],0.285
same,glycan array binding signal (z-score),[24],-0.403
same,glycan array binding signal (z-score),[25],-0.362
same,glycan array binding signal (z-score),[26],-0.979
same,glycan array binding signal (z-score),Neu5Ac(a2-6)GalNAc,-1.14
same,glycan array binding signal (z-score),[27],-1.33
same,glycan array binding signal (z-score),[28],-1.17
same,glycan array binding signal (z-score),[29],-1.14
same,glycan array binding signal (z-score),[30],-1.21

# A different layout for part of the listing above:
binder	measurement	setting	value
B1	glycan array binding signal (z-score)	[2]	0.577
same	glycan array binding signal (z-score)	[22]	-0.867
